Results taken from PMC8206348.
Results are given in words; binding and its absence hold for the method and conditions named. In cells and extracts the contact can be indirect. These calls come from enrichment with a bait or labelling near it, and not all partners need be listed.

By UniProt entry, the sequences of proteins in these tests, tags left out.
UniProt Q9Y5U2: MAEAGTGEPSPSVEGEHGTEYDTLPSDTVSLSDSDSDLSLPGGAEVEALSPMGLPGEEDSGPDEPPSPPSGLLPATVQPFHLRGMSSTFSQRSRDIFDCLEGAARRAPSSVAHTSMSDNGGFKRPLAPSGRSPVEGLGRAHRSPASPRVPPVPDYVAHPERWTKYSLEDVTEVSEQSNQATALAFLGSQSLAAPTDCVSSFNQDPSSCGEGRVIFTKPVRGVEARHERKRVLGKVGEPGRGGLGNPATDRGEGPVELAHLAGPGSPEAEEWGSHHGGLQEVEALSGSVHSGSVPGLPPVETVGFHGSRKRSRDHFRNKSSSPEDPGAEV
UniProt Q9Y265: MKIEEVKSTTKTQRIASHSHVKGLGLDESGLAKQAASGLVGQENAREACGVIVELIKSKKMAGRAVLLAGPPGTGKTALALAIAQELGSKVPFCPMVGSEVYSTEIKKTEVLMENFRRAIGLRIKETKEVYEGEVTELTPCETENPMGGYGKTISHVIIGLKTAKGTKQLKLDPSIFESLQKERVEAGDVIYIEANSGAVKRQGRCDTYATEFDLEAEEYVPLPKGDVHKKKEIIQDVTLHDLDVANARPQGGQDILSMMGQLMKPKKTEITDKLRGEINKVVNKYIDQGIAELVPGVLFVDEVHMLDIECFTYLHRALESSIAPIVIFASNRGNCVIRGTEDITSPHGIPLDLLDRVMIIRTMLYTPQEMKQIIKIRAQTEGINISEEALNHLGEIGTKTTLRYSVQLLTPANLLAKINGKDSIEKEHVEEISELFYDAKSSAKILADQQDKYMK

What was measured:
TSSC4-GFP (human) = TSSC4-GFP (human) (UniProt Q9Y5U2); test: affinity purification with mass spectrometry; SILAC-IP: HeLa Flp-In clones expressing GFP- or FLAG-tagged TSSC4 (medium label) against parental HeLa (light); GFP-Trap beads or M2 anti-FLAG agarose, 1.5 h at 4 °C; lysis buffer 20 mM HEPES pH 7.9, 100 mM KCl, 2 mM EDTA, 10% glycerol, 0.1% NP-40, 0.5% Triton X-100
TSSC4-FLAG (human) = TSSC4-FLAG (human) (UniProt Q9Y5U2); test: as above

binding (TSSC4-GFP (human))	binding (TSSC4-FLAG (human))	Molecule
binds	binds	RUVBL1 (from UniProt Q9Y265 1-456)
binds	binds	ZNHIT2 (protein, UniProt Q9UHR6 1-403) MEPAGPCGFCPAGEVQPARYTCPRCNAPYCSLRCYRTHGTCAENFYRDQVLGELRGCSAPPSRLASALRRLRQQRETEDEPGEAGLSSGPAPGGLSGLWERLAPGEKAAFERLLSRGEAGRLLPPWRPWWWNRGAGPQLLEELDNAPGSDAAELELAPARTPPDSVKDASAAEPAAAERVLGDVPGACTPVVPTRIPAIVSLSRGPVSPLVRFQLPNVLFAYAHTLALYHGGDDALLSDFCATLLGVSGALGAQQVFASAEEALQAAAHVLEAGEHPPGPLGTRGAMHEVARILLGEGPTNQKGYTLAALGDLAQTLGRARKQAVAREERDHLYRARKKCQFLLAWTNENEAALTPLALDCARAHQAHAVVAEEVAALTGELERLWGGPVPPAPRTLIEELPS
binds	binds	EAPP (protein, UniProt Q56P03 1-285) MNRLPDDYDPYAVEEPSDEEPALSSSEDEVDVLLHGTPDQKRKLIRECLTGESESSSEDEFEKEMEAELNSTMKTMEDKLSSLGTGSSSGNGKVATAPTRYYDDIYFDSDSEDEDRAVQVTKKKKKKQHKIPTNDELLYDPEKDNRDQAWVDAQRRGYHGLGPQRSRQQQPVPNSDAVLNCPACMTTLCLDCQRHESYKTQYRAMFVMNCSINKEEVLRYKASENRKKRRVHKKMRSNREDAAEKAETDVEEIYHPVMCTECSTEVAVYDKDEVFHFFNVLASHS
